No constants are given. Whether binding was seen depends on the method and setting. Binding seen in cells or lysates may run through a third protein. Some entries that bind do so weakly or less than the wild type. One block for each binder: values may come before it.
Tests used:
Assay in all cases: cross-linking
[1] = biological target: ribosomal protein RL11 (B. subtilis (endogenous in strain 168)) (UniProt Q06796)
[2] = biological target: RNA polymerase β subunit (B. subtilis (endogenous in strain 168)) (UniProt P37870)
[3] = biological target: T1, transcription elongation factor NusA (B. subtilis (endogenous in strain 168)) (UniProt P32727)
T1 sequence: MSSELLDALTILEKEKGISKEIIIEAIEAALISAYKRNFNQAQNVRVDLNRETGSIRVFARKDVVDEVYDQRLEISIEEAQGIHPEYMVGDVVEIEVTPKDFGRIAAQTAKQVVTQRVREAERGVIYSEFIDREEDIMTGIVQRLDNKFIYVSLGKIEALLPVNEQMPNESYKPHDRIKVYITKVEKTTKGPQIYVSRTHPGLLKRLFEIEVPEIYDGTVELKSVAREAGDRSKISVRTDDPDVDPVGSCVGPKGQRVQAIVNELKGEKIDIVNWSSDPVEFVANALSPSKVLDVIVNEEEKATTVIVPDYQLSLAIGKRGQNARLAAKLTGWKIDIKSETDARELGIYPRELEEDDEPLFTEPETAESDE

Sequences of proteins named here, by UniProt entry; tags and fusion partners are left off.
UniProt Q06796: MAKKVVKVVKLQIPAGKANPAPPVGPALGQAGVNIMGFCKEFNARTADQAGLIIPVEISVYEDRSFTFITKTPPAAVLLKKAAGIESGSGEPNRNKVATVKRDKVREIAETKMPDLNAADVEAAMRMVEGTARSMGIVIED
UniProt P37870: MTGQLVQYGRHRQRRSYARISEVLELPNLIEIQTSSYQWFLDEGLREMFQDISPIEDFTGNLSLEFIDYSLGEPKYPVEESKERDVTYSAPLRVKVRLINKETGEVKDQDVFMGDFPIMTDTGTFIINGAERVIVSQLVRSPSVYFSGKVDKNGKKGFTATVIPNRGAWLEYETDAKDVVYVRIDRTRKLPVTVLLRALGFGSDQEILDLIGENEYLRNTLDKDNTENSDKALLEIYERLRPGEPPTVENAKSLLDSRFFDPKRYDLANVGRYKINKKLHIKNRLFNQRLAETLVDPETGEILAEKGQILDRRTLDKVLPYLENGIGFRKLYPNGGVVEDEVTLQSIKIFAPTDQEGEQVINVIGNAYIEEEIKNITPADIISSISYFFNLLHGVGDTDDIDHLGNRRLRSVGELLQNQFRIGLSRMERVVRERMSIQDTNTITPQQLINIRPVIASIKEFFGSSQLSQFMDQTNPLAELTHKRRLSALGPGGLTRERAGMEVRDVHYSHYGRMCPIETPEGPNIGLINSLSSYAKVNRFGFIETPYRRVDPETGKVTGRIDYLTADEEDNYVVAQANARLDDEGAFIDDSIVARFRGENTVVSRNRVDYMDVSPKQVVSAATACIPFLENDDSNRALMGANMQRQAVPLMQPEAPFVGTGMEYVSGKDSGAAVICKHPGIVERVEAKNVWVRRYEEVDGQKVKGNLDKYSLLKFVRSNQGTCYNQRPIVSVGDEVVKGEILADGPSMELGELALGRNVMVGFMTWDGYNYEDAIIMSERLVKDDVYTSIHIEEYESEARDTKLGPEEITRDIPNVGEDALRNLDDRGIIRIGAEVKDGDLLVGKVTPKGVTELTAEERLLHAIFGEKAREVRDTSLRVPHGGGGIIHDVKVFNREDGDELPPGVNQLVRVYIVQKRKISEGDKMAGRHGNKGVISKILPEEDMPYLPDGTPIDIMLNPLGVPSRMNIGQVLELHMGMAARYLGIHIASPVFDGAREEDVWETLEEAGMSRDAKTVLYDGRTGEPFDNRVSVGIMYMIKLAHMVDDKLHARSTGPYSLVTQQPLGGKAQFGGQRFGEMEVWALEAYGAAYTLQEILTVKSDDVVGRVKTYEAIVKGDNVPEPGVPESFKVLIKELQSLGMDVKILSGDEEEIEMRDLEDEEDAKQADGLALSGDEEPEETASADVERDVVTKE
UniProt P37871: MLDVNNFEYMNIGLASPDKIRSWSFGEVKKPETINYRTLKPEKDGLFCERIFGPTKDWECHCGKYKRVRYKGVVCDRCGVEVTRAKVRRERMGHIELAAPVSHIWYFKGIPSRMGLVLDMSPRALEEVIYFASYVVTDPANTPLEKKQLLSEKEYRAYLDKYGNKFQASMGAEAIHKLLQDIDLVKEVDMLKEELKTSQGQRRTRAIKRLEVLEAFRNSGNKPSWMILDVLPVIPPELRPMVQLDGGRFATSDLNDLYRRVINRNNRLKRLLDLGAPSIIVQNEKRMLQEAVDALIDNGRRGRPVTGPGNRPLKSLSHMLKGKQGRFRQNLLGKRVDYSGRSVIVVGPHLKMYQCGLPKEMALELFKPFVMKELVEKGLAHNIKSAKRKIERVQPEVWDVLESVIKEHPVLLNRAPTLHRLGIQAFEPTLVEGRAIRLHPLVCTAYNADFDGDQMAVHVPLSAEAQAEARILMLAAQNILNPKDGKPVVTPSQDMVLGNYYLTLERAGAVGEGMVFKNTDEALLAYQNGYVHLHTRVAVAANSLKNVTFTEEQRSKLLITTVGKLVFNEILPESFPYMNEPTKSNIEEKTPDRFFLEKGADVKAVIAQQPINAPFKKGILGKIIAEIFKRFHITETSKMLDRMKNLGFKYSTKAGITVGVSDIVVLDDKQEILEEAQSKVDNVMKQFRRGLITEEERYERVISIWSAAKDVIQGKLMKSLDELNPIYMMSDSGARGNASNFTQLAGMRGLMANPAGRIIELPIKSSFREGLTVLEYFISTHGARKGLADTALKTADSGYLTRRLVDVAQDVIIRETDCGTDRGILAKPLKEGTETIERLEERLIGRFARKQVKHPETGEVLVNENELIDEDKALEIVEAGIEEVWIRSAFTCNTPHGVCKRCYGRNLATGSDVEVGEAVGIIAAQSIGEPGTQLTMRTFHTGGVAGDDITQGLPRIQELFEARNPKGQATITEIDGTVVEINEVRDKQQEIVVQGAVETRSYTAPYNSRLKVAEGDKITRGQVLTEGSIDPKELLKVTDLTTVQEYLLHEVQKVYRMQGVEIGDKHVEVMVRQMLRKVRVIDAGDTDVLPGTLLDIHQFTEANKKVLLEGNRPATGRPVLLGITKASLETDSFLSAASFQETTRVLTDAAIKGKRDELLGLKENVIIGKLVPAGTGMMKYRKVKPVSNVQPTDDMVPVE

[4] = biological target: RNAP β' subunit (RpoC) (B. subtilis (endogenous in strain 168)) (UniProt P37871)

- binding [1]: binds
B1: Ribosome-recycling factor RRF (protein, UniProt P81101 1-185)
chain: MSKEVLTQTKEKMEKAIAAYQRELATVRAGRANPSLLDKVTVEYYGAQTPLNQLSSINVPEARMLVITPYDKTAIGDIEKAILKADLGLTPTSDGNMIRIAIPALTEERRKELVKVVKKYAEEAKVAVRNVRRDANDDLKKLEKNGDITEDELRASTEDVQKLTDEYVSKIDSVTKDKEKEIMEV

- binding [2]: binds
B2: transcription elongation factor NusA (protein, UniProt P32727 1-371)
chain: MSSELLDALTILEKEKGISKEIIIEAIEAALISAYKRNFNQAQNVRVDLNRETGSIRVFARKDVVDEVYDQRLEISIEEAQGIHPEYMVGDVVEIEVTPKDFGRIAAQTAKQVVTQRVREAERGVIYSEFIDREEDIMTGIVQRLDNKFIYVSLGKIEALLPVNEQMPNESYKPHDRIKVYITKVEKTTKGPQIYVSRTHPGLLKRLFEIEVPEIYDGTVELKSVAREAGDRSKISVRTDDPDVDPVGSCVGPKGQRVQAIVNELKGEKIDIVNWSSDPVEFVANALSPSKVLDVIVNEEEKATTVIVPDYQLSLAIGKRGQNARLAAKLTGWKIDIKSETDARELGIYPRELEEDDEPLFTEPETAESDE

- binding [3]: binds
B3: glutamate dehydrogenase GudB (protein, UniProt P50735 1-427)
chain: MAADRNTGHTEEDKLDVLKSTQTVIHKALEKLGYPEEVYELLKEPMRLLTVKIPVRMDDGSVKIFTGYRAQHNDSVGPTKGGIRFHPNVTEKEVKAVKALSIWMSLKCGIIDLPYGGGKGGIVCDPRDMSFRELERLSRGYVRAISQIVGPTKDVPAPDVFTNSQIMAWMMDEYSRIDEFNSPGFITGKPLVLGGSHGRESATAKGVTICIKEAAKKRGIDIKGARVVVQGFGNAGSYLAKFMHDAGAKVVGISDAYGGLYDPEGLDIDYLLDRRDSFGTVTKLFNDTITNQELLELDCDILVPAAIENQITEENAHNIRAKIVVEAANGPTTLEGTKILSDRDILLVPDVLASAGGVTVSYFEWVQNNQGFYWSEEEVEEKLEKMMVKSFNNIYEMANNRRIDMRLAAYMVGVRKMAEASRFRGWI

- binding [2]: binds
- binding [4]: binds
B4: transcription elongation factor GreA (protein, UniProt P80240 1-157)
chain: MAQEKVFPMTAEGKQKLEQELEYLKTVKRKEVVERIKIARSFGDLSENSEYDSAKEEQAFVEGRVTTLENMIRNAKIIEDDGGSNVVGLGKTVTFVELPDGDEESYTIVGSAEADPFEGKISNDSPIAKSLLGKKVDEEVTVQTPGGEMLVKIVKIS

From article doi:10.1101/094961 (bioRxiv, 2017)
